Some of the results follow. The main result of the screen is listed elsewhere. These columns were measured beside it and carry no call. The list favours compounds with an active or inconclusive main result. The note in brackets gives the kind of curve behind each potency; many fits are weak.
Assay: qHTS Assay for Lipid Storage Modulators in Drosophila S3 Cells;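 for cell number change: cells counted by Cell Tracker Red CMTPX staining in the red channel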
Conditions: BODIPY lipid droplet fluorescence, 18-24 h; for cell number change: measured here: cell count max response, cells fed with added oleic acid
How it was run: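 Drosophila S3 cells got compounds at several concentrations plus oleic acid (400 uM solution). Laser-scanning cytometry with 488 nm excitation read lipid droplets at 500-530 nm and cells at 575-640 nm. Percent activity was relative to 20 uM Triacsin C.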

[1] = measured here: lipid fluorescence (Fed channel) AC50, cells fed with added oleic acid
[2] = measured here: cell number channel AC50, cells fed with added oleic acid

| Compound | cell number change [%] | AC50 [1] | AC50 [2] |
| --- | --- | --- | --- |
| COc1ccccc1/C=C/C(=O)NNC(=O)c1cccs1 | -21.6 | 0.291 µM [rising, full curve] |  |
| CCN(C(=O)COC(=O)c1cc(S(=O)(=O)Nc2c(C)n(C)n(-c3ccccc3)c2=O)ccc1Cl)C1CCCCC1 |  | 4.11 µM [falling, single point] |  |
| O=C(NCc1ccccc1)c1onc(CSc2nc3ccccc3[nH]2)c1C(=O)NCc1ccccc1 |  | 16.4 µM [falling, partial curve] |  |
| O=C(NC(=S)Nc1ccc2cn[nH]c2c1)c1ccccc1 | -22.2 |  | 2.06 µM [rising, partial curve] |
| CCN(CC)C(=O)CSc1nc(O)c(Cc2ccc(OC)cc2)c(=O)[nH]1 | 1.59 |  |  |
| O=C(Nc1ccc2c(c1)OCO2)C1CC(c2ccccc2Cl)=NO1 (configuration not stated) | -1.59 | 3.26 µM [rising, full curve] |  |
| C/C=C/c1ccc(OCC(=O)Nc2cc(Cl)ccc2-n2cncn2)c(OC)c1 |  | 1.84 µM [rising, partial curve] | 0.92 µM [rising, partial curve, poor fit] |
| O=C(Cc1ccccc1)NCC(=O)OCC(=O)c1cccs1 | 14.3 |  |  |
| Cn1c(SCC(=O)NC2CC2)nnc1C(F)(F)F | -0.91 | 18.4 µM [falling, single point] |  |
| Cc1cccc2cc(CN(CC3CCCO3)C(=S)Nc3ccccc3)c(=O)[nH]c12 (configuration not stated) | -5.78 | 29.1 µM [falling, single point] |  |
| COc1nc(N)c(C#N)c(-c2ccc(N(C)CCC#N)cc2)c1C#N | 4.11 | 1.46 µM [rising, partial curve] |  |
| CCCCOC(=O)c1ccc(N2C(=O)CC(N3CCN(C/C=C/c4ccccc4)CC3)C2=O)cc1 (configuration not stated) | -10.2 | 29.1 µM [rising, single point] | 0.731 µM [falling, single point] |
| Cc1nn(-c2ccccc2)c2sc(C(=O)NCCN3CCOCC3)cc12 | 3.97 |  |  |
| Cc1ccc(C(=O)C(C)OC(=O)CNC(=O)c2ccc(Br)o2)cc1 (configuration not stated) | 24.5 | 4.61 µM [rising, full curve] |  |
| Cc1ccc(NC(=O)CN(C)S(=O)(=O)c2cccs2)cc1C | 30 |  | 2.91 µM [rising, full curve, poor fit] |
| Cc1cc(C)cc(N(CC(=O)Nc2ccccc2-c2ccccc2)S(=O)(=O)c2ccccc2)c1 | 25.1 | 4.11 µM [rising, full curve, poor fit] |  |
| CCN(CC)c1nc(N2CCOCC2)nc2ccccc12 | 24.3 |  |  |
| CCOC(=O)c1cc2occc2n1CC(=O)N1CCOCC1 | 31.3 |  | 18.4 µM [rising, single point] |
| S=c1[nH]cc(-c2ccccc2)n1-c1ccccc1Cl | 0.627 | 0.116 µM [rising, full curve, poor fit] |  |
| O=C(COC(=O)/C=C/c1ccccc1F)Nc1nnc(-c2ccccc2)o1 | 60.5 |  |  |

| Compound | cell number change [%] | AC50 [1] | AC50 [2] |
| --- | --- | --- | --- |
| Cc1nc2[nH]c(=O)c3c(n2n1)NC1=C(C(=O)CC(C)(C)C1)C3c1ccccc1 (configuration not stated) |  | 6.51 µM [falling, partial curve] |  |
| Cc1c(NC(=O)C(C)OC(=O)CCOc2ccccc2)c(=O)n(-c2ccccc2)n1C (configuration not stated) | -19.5 | 0.146 µM [falling, full curve] | 0.731 µM [falling, full curve, poor fit] |
| Cc1ccc(NC(=O)c2nc[nH]c2C(=O)N[C@@H](C)c2ccccc2)cc1 | -34.5 | 0.92 µM [falling, full curve, poor fit] |  |
| Cc1cc(C)cc(NC(=O)COC(=O)Cc2ccccc2F)c1 | -40.9 | 0.731 µM [falling, single point] | 29.1 µM [falling, single point] |
| CC(C)C(=O)Nc1ccc(N2CCCC2)c(Cl)c1 | 28.4 | 29.1 µM [rising, single point] |  |
| Cc1cc(=O)c(C(=O)Nc2cccc(N3CCCC3=O)c2)nn1-c1ccccc1Cl | -23.1 | 0.092 µM [rising, full curve, poor fit] | 0.103 µM [rising, full curve, poor fit] |
| CCCS(=O)(=O)c1c(S(=O)(=O)CCC)c2c(N)cccn2c1C(=O)c1ccc(Br)cc1 | -16.8 | 29.1 µM [falling, single point] |  |
| CCOC(=O)c1[nH]c(C)c(C(=O)Nc2ccc(C)c(C)c2)c1C | 15.8 |  |  |
| N#C/C(=C/c1ccc(Oc2ccc([N+](=O)[O-])cn2)cc1)C(=O)N1CCOCC1 |  | 25.9 µM [falling, partial curve, poor fit] |  |
| CCCCSc1nc(C)c(CC(=O)OC)c(=O)[nH]1 | 15.4 | 29.1 µM [rising, single point] |  |
| Cc1ccnc(NS(=O)(=O)c2ccc(NC(=O)/C=C/c3cccs3)cc2)n1 | 24.2 |  |  |
| O=C(COC(=O)C(c1ccccc1)c1ccccc1)NCc1ccco1 | 56.3 |  | 29.1 µM [rising, single point] |
| c1ccc(-n2ncc3c(NCCCN4CCOCC4)ncnc32)cc1 | -3.96 |  | 6.51 µM [falling, single point] |
| CC(C)CNC(=O)CC(c1ccccc1)c1ccccc1 | -40.8 |  | 29.1 µM [falling, single point] |
| COC(=O)C1=C(C(=O)OC)SC(=C2C(=S)C(C)(C)N(C(=O)C(C)C)c3ccccc32)S1 | -87.8 | 18.4 µM [falling, single point] | 5.17 µM [falling, full curve] |
| ON/C=N/C(=S)Nc1ncc(C(F)(F)F)cc1Cl | -10.6 |  | 2.31 µM [falling, partial curve, poor fit] |
| O=C(N/N=C/c1cccc(OCc2ccccc2)c1)c1ccc(Br)o1 | -16.8 | 6.51 µM [falling, single point] |  |
| CC(=O)c1ccc(NC(=O)CSc2ccsc2[N+](=O)[O-])cc1 | 47.6 | 20.6 µM [rising, single point] | 18.4 µM [rising, single point] |
| Cc1cc(C)c(C(=O)/C=C/C=C/c2ccccc2)c(=O)[nH]1 | -31.6 |  | 25.9 µM [falling, single point] |
| Cc1ccc(C(=O)OCC(=O)Nc2cc(C(C)(C)C)nn2-c2ccccc2)c(O)c1 | -50.9 | 29.1 µM [falling, single point] | 25.9 µM [falling, single point] |

An excerpt of these results, with tabs:
Compound	cell number change [%]	AC50 [1]	AC50 [2]
Cc1ccnc(NS(=O)(=O)c2ccc(NC(=O)/C=C/c3cccs3)cc2)n1	24.2		
O=C(COC(=O)C(c1ccccc1)c1ccccc1)NCc1ccco1	56.3		29.1 µM [rising, single point]
c1ccc(-n2ncc3c(NCCCN4CCOCC4)ncnc32)cc1	-3.96		6.51 µM [falling, single point]

More records follow.

| Compound | cell number change [%] | AC50 [1] | AC50 [2] |
| --- | --- | --- | --- |
| Cc1ccc(OCCC(=O)NNC(=O)c2ccccc2F)cc1 | 16.6 | 5.8 µM [rising, full curve, poor fit] |  |
| COc1cc(OC)cc(C(=O)Nn2cc(C(=O)N3CCN(C)CC3)c3ccccc3c2=O)c1 | -14.4 |  |  |
| O=C(CCCSc1nc2ccccc2c(=O)[nH]1)c1ccc(F)cc1 | 20.3 |  |  |
| CC(C)(C)c1cc(NC(=O)Nc2ccccc2OC(F)(F)F)no1 | -31.8 | 13 µM [falling, partial curve, poor fit] | 10.3 µM [falling, partial curve] |
| COc1ccc(N2CCN(C(=O)CCNS(=O)(=O)c3ccc(Br)s3)CC2)cc1 |  | 2.91 µM [rising, partial curve] | 3.26 µM [rising, single point] |
| O=C(CSc1nc2ccccc2o1)N1CCCC1 |  | 6.51 µM [rising, partial curve, poor fit] | 0.92 µM [rising, partial curve, poor fit] |
| CC(=O)c1ccc(S(=O)(=O)N(C)CCCC(=O)N(C)Cc2c(F)cccc2Cl)cc1 | 1.28 | 20.6 µM [falling, partial curve] |  |
| CC(=O)NCCn1c(SCc2cc(=O)n3cc(Cl)ccc3n2)nc2ccccc2c1=O | 0.903 |  |  |
| CCOC(=O)C1=C(CC)Nc2ccccc2N=C1NC(=O)c1ccc(S(=O)(=O)N(C)C)cc1 | 49.5 |  | 1.84 µM [rising, full curve] |
| CSCCC(NC(=O)c1ccccc1Br)C(=O)NNC(=O)c1csc(N2CCOCC2)n1 (configuration not stated) | 0.109 | 0.411 µM [falling, single point] |  |
| O=C(CNC(=O)c1ccc(Br)o1)NNC(=O)c1cccc(Cl)c1 | 20.3 |  |  |
| CS(=O)(=O)c1ccc2nc(NC(=O)c3cccs3)sc2c1 |  | 1.3 µM [falling, full curve] |  |
| NC(=O)C1CCN(C2CC(=O)N(c3cccc(F)c3)C2=O)CC1 (configuration not stated) | -27.1 | 0.00461 µM [falling, full curve, poor fit] | 0.0291 µM [falling, full curve, poor fit] |
| CCN(CC)S(=O)(=O)c1ccc(C)c(NC(=O)/C=C/c2cccs2)c1 | -33.3 |  | 0.326 µM [falling, full curve, poor fit] |
| COc1ccc(C(=O)NCc2cn3cccc(C)c3n2)cc1OC | 33.1 | 3.66 µM [rising, partial curve, poor fit] | 5.17 µM [rising, single point] |
| O=C1CSC(=S)N1c1cccnc1 | 12.7 | 0.00517 µM [falling, full curve, poor fit] |  |
| COc1ccc(CCNC(=O)Cn2nnc(-c3ccccc3F)n2)cc1OC | -44.9 | 11.6 µM [falling, partial curve] | 11.6 µM [falling, partial curve] |
| C/C(=C1/SC(N2CCOCC2)=NC1=O)c1ccc(Br)cc1 | -15 | 32.6 µM [falling, single point] |  |
| C=CCn1c(=O)c2c(nc3n2CC(C)CN3CCc2ccccc2)n(C)c1=O (configuration not stated) | 1.49 |  |  |

— PubChem BioAssay AID2685 (National Center for Advancing Translational Sciences (NCATS), 2010)
